Record: PubChem BioAssay AID1508588 (Peter MacCallum Cancer Centre, 2020)

Test: 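Knock-downs boosting vemurafenib effects on melanoma cell growth or lactate release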 (primary screen)
System: human WM266.4 melanoma cells (BRAF V600 mutant)
Reagent: siRNA pool against human genes, 40 nM
Timing: 96 h from transfection to read-out
Challenge: vemurafenib 300 nM (about IC25), added 48 h after transfection, for 48 h; comparison arm got DMSO vehicle only
Measurement: 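Cell gain (DAPI nuclei at end minus before drug, mean of two replicates) and medium lactate by absorbance per cell, both as ratio to non-targeting siRNA, also grouped into fold-change classes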
Scale: cell gain with vemurafenib: higher = more cell gain than with non-targeting siRNA; lactate per cell with vemurafenib: higher = more lactate made per cell
Rule for the call: 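a knock-down counts as enhancing when its fold-change classes with vehicle and with vemurafenib, taken together, show a stronger drug effect on cell gain or lactate per cell; exact class pairs not stated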
Calls: active = enhances vemurafenib effect; inactive = no enhancement seen
The whole screen tested about 18,000 reagents; shown is a part drawn at random. Of all reagents, 790 (4.4%) got an active call. 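Calls rest on a combination of fold-change classes in drug and vehicle arms, not all shown here.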 Entries without a mark were called inactive. Reagent sequences are not shown.

The first 2 records, to show the layout:
TASL (TLR adaptor interacting with endolysosomal SLC15A4): cell gain with vemurafenib = 0.96; lactate per cell with vemurafenib = 0.73
FANCC (FA complementation group C): cell gain with vemurafenib = 0.35; lactate per cell with vemurafenib = 2.02

The list itself, repeating the preview:
TASL (TLR adaptor interacting with endolysosomal SLC15A4): cell gain with vemurafenib = 0.96; lactate per cell with vemurafenib = 0.73
FANCC (FA complementation group C): cell gain with vemurafenib = 0.35; lactate per cell with vemurafenib = 2.02
PPP3R2 (protein phosphatase 3 regulatory subunit B, beta): cell gain with vemurafenib = 1.03; lactate per cell with vemurafenib = 1.32
ERLIN1 (ER lipid raft associated 1): cell gain with vemurafenib = 0.77; lactate per cell with vemurafenib = 0.6
TBC1D3C (TBC1 domain family member 3C): cell gain with vemurafenib = 0.91; lactate per cell with vemurafenib = 0.99
EMG1 (EMG1 N1-specific pseudouridine methyltransferase): cell gain with vemurafenib = 0.19; lactate per cell with vemurafenib = 2.91
GLB1 (galactosidase beta 1): cell gain with vemurafenib = 0.59; lactate per cell with vemurafenib = 0.9
GJB3 (gap junction protein beta 3): cell gain with vemurafenib = 0.42; lactate per cell with vemurafenib = 2.18
PDCD1LG2 (programmed cell death 1 ligand 2): cell gain with vemurafenib = 0.34; lactate per cell with vemurafenib = 2.06
VGLL1 (vestigial like family member 1): cell gain with vemurafenib = 0.63; lactate per cell with vemurafenib = 1.08
UTP18 (UTP18 small subunit processome component): cell gain with vemurafenib = 0.46; lactate per cell with vemurafenib = 0.87
RASGEF1A (RasGEF domain family member 1A): cell gain with vemurafenib = 0.44; lactate per cell with vemurafenib = 1.42
POLR3H (RNA polymerase III subunit H): cell gain with vemurafenib = 0.41; lactate per cell with vemurafenib = 1.14
ITCH (itchy E3 ubiquitin protein ligase): cell gain with vemurafenib = 0.16; lactate per cell with vemurafenib = 2.13
UBAC2 (UBA domain containing 2): cell gain with vemurafenib = 0.41; lactate per cell with vemurafenib = 1.73
RRP1 (ribosomal RNA processing 1): cell gain with vemurafenib = 0.75 (active); lactate per cell with vemurafenib = 0.7
